This data set is described as follows: Plasma potassium in sheep of the MCC study (marker for hyperkalemia). The note with it: for Therapeutic Ratio: Benefit/Risk, sheep. How it is done: The animal model that has been used most often to measure changes in MCC is the sheep model. The effect of compounds for enhancing mucociliary clearance (MCC) can be measured using an in vivo model described by Sabater et al., Journal of Applied Physiology, 1999, pp. 2191-2196, incorporated herein by reference. In these studies, adult sheep were restrained and nasally intubated with an endotracheal tube. Aerosolized test articles were administered over 10-15 minutes to sheep. Radiolabeled ^99mTc-sulfur colloid (TSC, 3.1 mg/mL; containing approximately 20 mCi) was then administered at a specified time four or eight hours after test article. The radiolabeled aerosol was administered through the endotracheal tube for about 5 minutes. The sheep were then extubated, and total radioactive counts in the lung were measured every 5 minutes for a 1-hour observation period. The rate of radiolabel clearance from the lung is representative of the MCC rate in the animal. The advantage of this system is that it closely simulates the human lung environment. The model also allows for the collection of simultaneous PK/PD information through plasma and urine sampling over the test period. There are also several techniques to measure the drug concentrations on the airway surface during the MCC measurements. These include the collection of exhaled breath condensates or a filter paper method to obtain ASL via bronchoscopy.
The ovine model described above was used to evaluate the in vivo effects (efficacy/durability) of aerosol-delivered Compound II-d on MCC. Treatments consisting of either 4 mL of Compound II-d, Comparative Example 1, (S)-3,5-diamino-6-chloro-N—(N-(4-(4-(2,3-diamino-3-oxopropoxy)phenyl)butyl)carbamimidoyl)pyrazine-2-carboxamide, vehicle (sterile distilled H2O), or test agent in combination with HS were tested. To determine if combining HS with Compound II-d MCC, HS was administered immediately following Compound II-d administration. […] Radioactive counts were measured in a central region in the right lung at 5 min intervals for one hour with a gamma camera. […]

SMILES strings stand for the structures.

`N=C(NCCCCc1ccc(OC[C@H](N)C(N)=O)cc1)NC(=O)c1nc(Cl)c(N)nc1N` [Comparative Example 1, (S)-3,5-diamino-6-chloro-N—(N-(4-(4-(2,3-diamino-3-oxopropoxy)phenyl)butyl)carbamimidoyl)pyrazine-2-carboxamide, reference compound]: the “Therapeutic Ratio” value worked out at 0.1.
For the molecule `N=C(NCCCCc1ccc(CC[C@H](NCCCN(C[C@H](O)[C@@H](O)[C@H](O)[C@H](O)CO)C[C@H](O)[C@@H](O)[C@H](O)[C@H](O)CO)C(N)=O)cc1)NC(=O)c1nc(Cl)c(N)nc1N` [II-d, 3,5-diamino-N—(N-(4-(4-((S)-4-amino-3-(3-(bis((2S,3R,4R,5R)-2,3,4,5,6-pentahydroxyhexyl)amino)propylamino)-4-oxobutyl)phenyl)butyl)carbamimidoyl)-6-chloropyrazine-2-carboxamide], the “Therapeutic Ratio” value is reported as 1,000. Also, where the note is “sheep MCC model, MCC versus plasma potassium”, the “benefit to risk ratio” value is “greater than 1000”.

The values above are taken from patent publication US10246425B2, “3,5-diamino-6-chloro-N-(N-(4-phenylbutyl)carbamimidoyl) pyrazine-2-carboxamide compounds” (Parion Sciences, Inc., priority 2012, dated 2019).
